Source: patent publication US20030077679A1
Results are given in words; binding and its absence hold for the method and conditions named. In cells and extracts the contact can be indirect. Some entries that bind do so weakly or less than the wild type. Where a sequence is shown, tags or fusion partners need not be part of it.

Target: T1, human EID-1 with an N-terminal V5-HIS6 tag (in p423CDN) (human) (UniProt Q9Y6B2)
T1 sequence: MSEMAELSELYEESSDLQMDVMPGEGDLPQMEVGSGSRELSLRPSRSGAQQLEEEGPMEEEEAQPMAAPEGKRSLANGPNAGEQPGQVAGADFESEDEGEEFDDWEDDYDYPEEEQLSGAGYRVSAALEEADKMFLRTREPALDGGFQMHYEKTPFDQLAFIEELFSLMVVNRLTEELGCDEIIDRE
Experiment: co-immunoprecipitation with anti-V5 antibodies from transfected HEK293 cell lysate, western blot with anti-cmyc

B1: murine DYRK3 with an N-terminal cmyc6 tag (in pCDNA3.1) (enzyme, not shown: small tags and cut ends)
chain: MMIDETKGPPYSDTFSNPSEAPVSRRLNITTEPLTRGHTQHFVNGSEMKVEQLFQEFGNRRSNTLQSDGISNSEKSSPASQGKSSESLSAVKCNLSSRPSKVLPLTPEQALKQYKHHLTAYEKLEIVSYPEIYFVGPNAKKRQGVIGGPNNGGYDDADGAYIHVPRDHLAYRYEVLKIIGKGSFGQVARVYDHKLRQYVALKMVRNEKRFHRQAAEEIRILEHLKKQDKTGSMNVIHMLESFTFRNHVCMAFELLSIDLYELIKKNKFQGFSVQLVRKFAQSILQSLDALHKNKIIHCDLKPENILLKHHGRSATKVIDFGSSCFEYQKLYTYIQSRFYRAPEIILGCRYSTPIDIWSFGCILAELLTGQPLFPGEDEGDQLACMIELLGMPPQKLLEQSKRAKYFINSKGLPRYCSVSTQTDGRVVLLGGRSRRGKKRGPPGSKDWATALKGCGDYLFIEFLKRCLQWDPSARLTPAQALRHPWISKSTPKPLTMDKVPGKRVVNPTNAFQGLGSKLPPVVGIASKLKANLMSETSGSIPLCSVLPKLIS
binding: binds
